Results on one molecule are retold here after PMC2930282 (The Journal of Cell Biology, 2010).

Amino acid sequences for entries named in this document (tags omitted).
UniProt Q86C65, whole entry: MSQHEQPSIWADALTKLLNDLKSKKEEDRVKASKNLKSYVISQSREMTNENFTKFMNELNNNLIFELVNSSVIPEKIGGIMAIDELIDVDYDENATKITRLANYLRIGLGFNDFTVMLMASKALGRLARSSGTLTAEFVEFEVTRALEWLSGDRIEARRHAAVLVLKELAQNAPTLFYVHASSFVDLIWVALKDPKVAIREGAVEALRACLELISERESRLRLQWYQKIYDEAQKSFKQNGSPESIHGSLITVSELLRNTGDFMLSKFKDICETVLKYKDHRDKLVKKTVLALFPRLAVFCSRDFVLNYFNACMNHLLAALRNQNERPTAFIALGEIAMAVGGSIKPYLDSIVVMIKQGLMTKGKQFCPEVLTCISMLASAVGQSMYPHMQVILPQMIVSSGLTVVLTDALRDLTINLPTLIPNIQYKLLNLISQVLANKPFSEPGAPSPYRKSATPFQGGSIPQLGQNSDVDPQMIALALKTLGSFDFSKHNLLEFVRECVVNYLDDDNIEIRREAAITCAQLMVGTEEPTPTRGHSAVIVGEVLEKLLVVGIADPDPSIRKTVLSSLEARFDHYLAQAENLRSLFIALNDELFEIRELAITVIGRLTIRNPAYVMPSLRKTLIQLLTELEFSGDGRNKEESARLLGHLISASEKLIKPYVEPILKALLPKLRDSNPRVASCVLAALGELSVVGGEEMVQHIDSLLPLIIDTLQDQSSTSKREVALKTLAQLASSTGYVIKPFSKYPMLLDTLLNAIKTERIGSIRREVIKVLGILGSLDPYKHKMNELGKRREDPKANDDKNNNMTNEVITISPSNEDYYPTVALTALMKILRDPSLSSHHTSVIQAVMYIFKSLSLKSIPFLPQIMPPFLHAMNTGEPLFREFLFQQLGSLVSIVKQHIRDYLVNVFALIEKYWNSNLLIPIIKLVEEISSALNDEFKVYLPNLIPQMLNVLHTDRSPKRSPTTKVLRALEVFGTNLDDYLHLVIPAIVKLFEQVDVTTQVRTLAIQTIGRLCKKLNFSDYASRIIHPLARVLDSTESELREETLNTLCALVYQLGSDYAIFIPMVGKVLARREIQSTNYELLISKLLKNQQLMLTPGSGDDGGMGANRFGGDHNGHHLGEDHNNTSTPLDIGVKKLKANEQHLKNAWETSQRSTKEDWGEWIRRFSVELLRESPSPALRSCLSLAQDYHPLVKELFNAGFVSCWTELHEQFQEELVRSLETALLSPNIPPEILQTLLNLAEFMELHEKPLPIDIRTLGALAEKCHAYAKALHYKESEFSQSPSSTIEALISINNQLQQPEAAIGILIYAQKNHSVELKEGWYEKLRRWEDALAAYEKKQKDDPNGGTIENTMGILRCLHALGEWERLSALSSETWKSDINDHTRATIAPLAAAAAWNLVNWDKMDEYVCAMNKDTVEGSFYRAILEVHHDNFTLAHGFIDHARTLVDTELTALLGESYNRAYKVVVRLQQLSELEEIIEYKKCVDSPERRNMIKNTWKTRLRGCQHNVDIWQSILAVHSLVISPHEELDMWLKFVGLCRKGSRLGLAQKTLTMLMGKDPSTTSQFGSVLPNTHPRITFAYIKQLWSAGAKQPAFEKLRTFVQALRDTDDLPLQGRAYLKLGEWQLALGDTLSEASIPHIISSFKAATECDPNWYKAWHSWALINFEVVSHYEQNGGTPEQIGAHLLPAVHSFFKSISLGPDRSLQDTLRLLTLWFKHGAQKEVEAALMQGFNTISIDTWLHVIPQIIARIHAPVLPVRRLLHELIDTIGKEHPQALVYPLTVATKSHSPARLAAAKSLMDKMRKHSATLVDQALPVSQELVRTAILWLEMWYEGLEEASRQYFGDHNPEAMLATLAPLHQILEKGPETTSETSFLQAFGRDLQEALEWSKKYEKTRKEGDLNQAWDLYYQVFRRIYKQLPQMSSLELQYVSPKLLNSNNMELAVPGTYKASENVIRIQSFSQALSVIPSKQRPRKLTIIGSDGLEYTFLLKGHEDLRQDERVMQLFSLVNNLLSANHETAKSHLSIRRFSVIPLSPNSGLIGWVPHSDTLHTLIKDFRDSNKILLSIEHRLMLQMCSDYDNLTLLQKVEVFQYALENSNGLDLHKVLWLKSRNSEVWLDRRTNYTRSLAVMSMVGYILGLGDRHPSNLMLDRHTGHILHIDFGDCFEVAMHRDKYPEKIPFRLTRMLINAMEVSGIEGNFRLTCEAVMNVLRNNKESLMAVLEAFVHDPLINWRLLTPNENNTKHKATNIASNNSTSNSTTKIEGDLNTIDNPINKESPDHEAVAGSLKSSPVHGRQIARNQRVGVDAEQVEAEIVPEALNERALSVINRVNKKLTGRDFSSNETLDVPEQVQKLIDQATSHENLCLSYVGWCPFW

For orientation: IC50 means the concentration at which inhibition is half-maximal.

The test deals with TORC2 (Flag-PiaA immunocomplex) (Dictyostelium discoideum, UniProt Q86C65). Kind of test: biochemical.

For `CC(C)n1nc(-c2cc3cc(O)ccc3[nH]2)c2c(N)ncnc21` [PP242], the IC50 was ~4 nM.
